Several values for one entry are separate records, joined by “and”; a condition that tells them apart may be missing. Equal entries are not always repeated. This is one part of the list.

Test systems include UBE2T (human); UBE2Z (human); UBE3C (human); UBQLN1 (human); UBQLN2 (human); UBTD2 (human); UCHL1 (human); UCHL3 (human); UCHL5 (human); UGP2 (human); ULK4 (human); UROS (human); USE1 (human); USP47 (human).
Holding throughout (test): protein microarray (ProtoArray v5.0), streptavidin-Alexa Fluor 647
Holding throughout (conditions): 3'-biotin; 20 mM Tris (pH 7.5), 5 mM MgCl2, 100 mM KCl, 0.1% Tween-20, A/T-rich and random oligonucleotide blockers; temperature not stated; high values mean tight binding

Assay [1] concerns UBX domain-containing protein 7 (human).
Assay [2] concerns UPF0417 protein FAM163A (human).
The subject of assay [3] is UPF0545 protein C22orf39 (human).
Assay [4] has as its system UPF0546 membrane protein C1orf91 (human).
Assay [5] deals with UPF0549 protein C20orf43 homolog (human).
Assay [6] deals with UPF0627 protein ENSP00000358171 (human).

“GGGGACAGGGGTATGGGGAGGGG [G4-3 biotinylated (CtG)]”: the binding signal in the assay with UBE2T (human) is -0.324 z-score; in the assay on UBE2Z (human), -0.315 z-score; in the assay with UBE3C (human), -0.316 z-score; with UBQLN1 (human) it was -0.331 z-score; in the assay with UBQLN2 (human), -0.33 z-score; in the assay on UBTD2 (human), -0.327 z-score. Besides, the binding signal in [1] was -0.345 z-score; with UCHL1 (human), -0.337 z-score; in the assay on UCHL3 (human) it was -0.333 z-score; in the assay with UCHL5 (human), -0.331 z-score and -0.338 z-score; with UGP2 (human), -0.324 z-score; in the assay on ULK4 (human) it was -0.321 z-score. The binding signal in assay [2] was -0.335 z-score; in [3], -0.316 z-score; in assay [4] it was -0.318 z-score; in [5], -0.323 z-score; in assay [6], -0.324 z-score; with UROS (human), -0.318 z-score. Moreover, the binding signal in the assay on USE1 (human) was -0.328 z-score; with USP47 (human) it was -0.326 z-score.

Values taken from publication PMC5996148.
